Experimental data taken from publication PMC11943061.
Results are given in words; binding and its absence hold for the method and conditions named. Binding seen in cells or lysates may run through a third protein. Some binding calls cover weakened binding; strength is not graded here.

Chains of the proteins cited; added tags and fusions are not shown.
UniProt P02340: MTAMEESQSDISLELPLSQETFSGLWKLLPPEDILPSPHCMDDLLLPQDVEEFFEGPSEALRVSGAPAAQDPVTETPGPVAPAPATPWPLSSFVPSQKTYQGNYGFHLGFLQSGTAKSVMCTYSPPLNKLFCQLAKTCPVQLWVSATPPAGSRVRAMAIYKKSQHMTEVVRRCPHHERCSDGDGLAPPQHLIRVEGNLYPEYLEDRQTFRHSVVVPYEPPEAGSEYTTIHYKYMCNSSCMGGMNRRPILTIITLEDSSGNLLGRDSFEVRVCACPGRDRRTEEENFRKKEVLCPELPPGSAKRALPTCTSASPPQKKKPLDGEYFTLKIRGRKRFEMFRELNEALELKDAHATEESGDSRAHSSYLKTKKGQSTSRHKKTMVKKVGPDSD

Columns and labels:
[1] = target: T1, SLC39A14 (solute carrier family 39 member 14) (mouse (endogenous in ATDC5)) (UniProt Q75N73); experiment: co-IP; cell lysate (lysis buffer with 1% PMSF and 1% phosphatase inhibitor) treated with RNase A (10 ug/mL); incubated with IgG or the corresponding antibodies overnight at 4 °C, Protein A/G beads 3-4 h, washed 3 times with lysis buffer; Western blot
T1 sequence: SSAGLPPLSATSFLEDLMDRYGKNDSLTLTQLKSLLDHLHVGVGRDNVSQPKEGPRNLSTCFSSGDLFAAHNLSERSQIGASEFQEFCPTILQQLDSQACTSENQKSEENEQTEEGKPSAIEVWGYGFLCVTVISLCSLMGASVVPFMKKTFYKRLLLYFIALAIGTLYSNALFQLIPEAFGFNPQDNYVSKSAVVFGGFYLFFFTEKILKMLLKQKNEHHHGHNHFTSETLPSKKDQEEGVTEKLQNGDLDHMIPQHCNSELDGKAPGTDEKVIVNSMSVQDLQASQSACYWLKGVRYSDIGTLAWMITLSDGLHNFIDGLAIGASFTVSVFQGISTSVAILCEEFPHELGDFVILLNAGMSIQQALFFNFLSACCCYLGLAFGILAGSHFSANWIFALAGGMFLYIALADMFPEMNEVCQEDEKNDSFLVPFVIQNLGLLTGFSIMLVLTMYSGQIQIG

[2] = target: Transferrin receptor 1 (TFRC) (not stated (in mouse ATDC5 cells; endogenous or from the Flag-tagged plasmid not told)) (UniProt Q62351); experiment: as above

With p53 (from UniProt P02340 1-390) the binding [1] was “binds” and the binding [2] was “no binding”.
